Source: the supplement of paper PMC6411743
± gives the standard deviation of the averaged measurements. The list shows a part of the results, in another mix than the full data.

Chains of the proteins cited; added tags and fusions are not shown. Lines headed by an entry give the natural chain unless they say otherwise; changes in a name come on top.
UniProt Q9H019: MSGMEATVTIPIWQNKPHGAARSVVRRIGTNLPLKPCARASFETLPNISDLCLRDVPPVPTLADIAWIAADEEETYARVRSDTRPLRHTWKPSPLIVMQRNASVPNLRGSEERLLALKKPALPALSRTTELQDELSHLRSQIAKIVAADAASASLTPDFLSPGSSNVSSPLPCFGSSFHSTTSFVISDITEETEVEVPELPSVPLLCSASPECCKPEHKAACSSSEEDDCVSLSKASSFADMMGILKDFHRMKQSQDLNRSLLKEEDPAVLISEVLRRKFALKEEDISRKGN
UniProt P78559: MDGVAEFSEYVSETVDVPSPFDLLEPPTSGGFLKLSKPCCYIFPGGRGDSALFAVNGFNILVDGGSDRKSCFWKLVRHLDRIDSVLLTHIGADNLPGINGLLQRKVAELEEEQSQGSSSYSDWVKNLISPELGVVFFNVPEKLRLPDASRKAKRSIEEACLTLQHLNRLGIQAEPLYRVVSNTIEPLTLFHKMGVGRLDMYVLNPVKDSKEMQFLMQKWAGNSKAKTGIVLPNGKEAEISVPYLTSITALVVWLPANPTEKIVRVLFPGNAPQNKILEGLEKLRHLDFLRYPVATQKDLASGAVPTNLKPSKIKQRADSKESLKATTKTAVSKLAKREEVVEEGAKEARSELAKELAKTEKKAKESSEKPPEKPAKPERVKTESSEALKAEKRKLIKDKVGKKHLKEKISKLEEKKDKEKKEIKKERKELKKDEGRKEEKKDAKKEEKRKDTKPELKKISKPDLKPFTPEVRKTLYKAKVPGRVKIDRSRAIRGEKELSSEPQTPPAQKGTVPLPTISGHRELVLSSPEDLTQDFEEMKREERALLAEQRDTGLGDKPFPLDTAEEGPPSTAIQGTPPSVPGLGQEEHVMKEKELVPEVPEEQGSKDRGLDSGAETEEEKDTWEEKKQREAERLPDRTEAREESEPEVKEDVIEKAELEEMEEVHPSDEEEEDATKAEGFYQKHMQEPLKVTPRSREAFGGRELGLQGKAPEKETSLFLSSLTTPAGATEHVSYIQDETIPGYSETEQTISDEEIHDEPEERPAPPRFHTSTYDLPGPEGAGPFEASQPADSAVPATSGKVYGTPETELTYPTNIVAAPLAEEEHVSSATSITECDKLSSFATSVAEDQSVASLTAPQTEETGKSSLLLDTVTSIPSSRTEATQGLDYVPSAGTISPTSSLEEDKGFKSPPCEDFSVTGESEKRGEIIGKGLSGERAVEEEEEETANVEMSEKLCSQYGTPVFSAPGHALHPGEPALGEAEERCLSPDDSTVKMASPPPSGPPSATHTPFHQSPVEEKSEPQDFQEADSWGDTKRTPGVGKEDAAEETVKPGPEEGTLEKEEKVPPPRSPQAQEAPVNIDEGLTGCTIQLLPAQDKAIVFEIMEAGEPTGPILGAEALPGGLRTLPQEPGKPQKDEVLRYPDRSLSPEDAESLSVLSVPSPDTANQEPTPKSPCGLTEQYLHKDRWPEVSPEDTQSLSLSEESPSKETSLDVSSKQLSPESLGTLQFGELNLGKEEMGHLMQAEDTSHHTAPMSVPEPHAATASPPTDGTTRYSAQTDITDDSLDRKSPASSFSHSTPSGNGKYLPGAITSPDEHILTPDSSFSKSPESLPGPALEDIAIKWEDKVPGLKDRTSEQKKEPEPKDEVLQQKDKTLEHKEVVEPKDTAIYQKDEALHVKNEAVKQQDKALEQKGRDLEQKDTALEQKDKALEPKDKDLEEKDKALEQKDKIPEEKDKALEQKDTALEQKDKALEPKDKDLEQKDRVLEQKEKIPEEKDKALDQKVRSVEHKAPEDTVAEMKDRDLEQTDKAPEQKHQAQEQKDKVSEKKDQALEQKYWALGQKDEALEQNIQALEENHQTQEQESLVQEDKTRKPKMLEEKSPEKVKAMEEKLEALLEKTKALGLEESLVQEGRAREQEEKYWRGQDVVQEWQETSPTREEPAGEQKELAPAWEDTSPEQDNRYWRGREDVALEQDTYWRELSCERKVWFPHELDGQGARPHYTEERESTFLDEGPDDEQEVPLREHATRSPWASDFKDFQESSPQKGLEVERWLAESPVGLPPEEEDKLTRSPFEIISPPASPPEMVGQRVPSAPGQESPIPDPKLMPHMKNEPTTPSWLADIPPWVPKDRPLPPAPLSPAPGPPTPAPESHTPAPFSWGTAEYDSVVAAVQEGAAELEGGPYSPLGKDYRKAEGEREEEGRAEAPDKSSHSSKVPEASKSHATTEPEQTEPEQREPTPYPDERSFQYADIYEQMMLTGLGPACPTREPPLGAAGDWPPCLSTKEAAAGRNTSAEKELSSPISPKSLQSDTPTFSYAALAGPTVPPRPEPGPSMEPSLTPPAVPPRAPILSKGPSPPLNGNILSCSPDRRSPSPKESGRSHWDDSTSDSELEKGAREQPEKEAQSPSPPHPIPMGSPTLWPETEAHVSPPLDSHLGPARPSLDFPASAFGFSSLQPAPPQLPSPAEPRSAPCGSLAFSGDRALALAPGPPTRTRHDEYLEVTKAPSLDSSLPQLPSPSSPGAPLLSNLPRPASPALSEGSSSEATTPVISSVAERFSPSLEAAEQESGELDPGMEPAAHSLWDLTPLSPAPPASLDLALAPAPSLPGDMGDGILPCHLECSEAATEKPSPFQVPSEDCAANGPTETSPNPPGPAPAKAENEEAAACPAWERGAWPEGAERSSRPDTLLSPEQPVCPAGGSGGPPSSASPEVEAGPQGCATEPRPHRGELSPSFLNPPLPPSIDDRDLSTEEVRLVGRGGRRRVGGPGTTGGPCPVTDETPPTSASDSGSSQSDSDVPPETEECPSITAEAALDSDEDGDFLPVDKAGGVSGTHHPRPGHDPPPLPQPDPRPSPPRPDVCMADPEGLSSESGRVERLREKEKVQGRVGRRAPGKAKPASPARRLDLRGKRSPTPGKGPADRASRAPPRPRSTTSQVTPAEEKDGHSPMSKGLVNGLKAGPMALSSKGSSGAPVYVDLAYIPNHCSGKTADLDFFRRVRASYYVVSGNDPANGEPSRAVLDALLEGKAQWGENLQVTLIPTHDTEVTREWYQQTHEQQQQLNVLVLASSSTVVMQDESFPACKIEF
UniProt Q8TAQ2, whole entry: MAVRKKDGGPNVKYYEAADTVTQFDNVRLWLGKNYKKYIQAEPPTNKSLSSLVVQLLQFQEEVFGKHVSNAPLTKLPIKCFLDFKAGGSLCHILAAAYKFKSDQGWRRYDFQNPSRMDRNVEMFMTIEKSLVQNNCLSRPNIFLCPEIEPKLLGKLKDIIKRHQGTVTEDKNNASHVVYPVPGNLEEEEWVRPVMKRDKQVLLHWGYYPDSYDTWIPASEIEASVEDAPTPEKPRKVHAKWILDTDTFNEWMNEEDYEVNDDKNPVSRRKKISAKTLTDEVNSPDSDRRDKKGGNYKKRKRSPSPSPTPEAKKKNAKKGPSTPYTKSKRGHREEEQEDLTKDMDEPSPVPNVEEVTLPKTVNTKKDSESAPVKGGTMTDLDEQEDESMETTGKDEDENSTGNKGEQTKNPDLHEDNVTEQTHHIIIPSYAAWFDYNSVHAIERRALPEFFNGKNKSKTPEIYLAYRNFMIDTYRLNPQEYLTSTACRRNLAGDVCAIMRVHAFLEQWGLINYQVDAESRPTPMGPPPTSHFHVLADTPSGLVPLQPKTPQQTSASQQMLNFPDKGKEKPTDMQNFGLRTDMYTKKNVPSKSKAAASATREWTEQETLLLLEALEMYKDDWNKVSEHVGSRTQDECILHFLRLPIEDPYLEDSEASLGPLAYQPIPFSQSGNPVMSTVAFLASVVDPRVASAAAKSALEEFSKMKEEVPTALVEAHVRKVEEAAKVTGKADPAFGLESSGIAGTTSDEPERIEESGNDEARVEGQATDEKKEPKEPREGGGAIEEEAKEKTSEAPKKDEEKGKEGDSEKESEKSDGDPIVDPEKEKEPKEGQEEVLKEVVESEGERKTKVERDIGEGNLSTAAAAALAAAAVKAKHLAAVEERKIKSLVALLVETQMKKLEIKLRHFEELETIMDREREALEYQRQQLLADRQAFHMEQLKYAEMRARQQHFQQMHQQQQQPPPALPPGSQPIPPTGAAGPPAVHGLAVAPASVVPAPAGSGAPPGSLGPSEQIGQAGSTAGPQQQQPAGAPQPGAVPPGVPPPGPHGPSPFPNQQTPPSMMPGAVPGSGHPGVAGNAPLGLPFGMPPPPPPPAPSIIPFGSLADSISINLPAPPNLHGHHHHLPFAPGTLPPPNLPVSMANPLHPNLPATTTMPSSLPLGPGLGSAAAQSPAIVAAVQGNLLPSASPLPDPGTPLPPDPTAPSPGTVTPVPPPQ
UniProt P68400, whole entry, looked up: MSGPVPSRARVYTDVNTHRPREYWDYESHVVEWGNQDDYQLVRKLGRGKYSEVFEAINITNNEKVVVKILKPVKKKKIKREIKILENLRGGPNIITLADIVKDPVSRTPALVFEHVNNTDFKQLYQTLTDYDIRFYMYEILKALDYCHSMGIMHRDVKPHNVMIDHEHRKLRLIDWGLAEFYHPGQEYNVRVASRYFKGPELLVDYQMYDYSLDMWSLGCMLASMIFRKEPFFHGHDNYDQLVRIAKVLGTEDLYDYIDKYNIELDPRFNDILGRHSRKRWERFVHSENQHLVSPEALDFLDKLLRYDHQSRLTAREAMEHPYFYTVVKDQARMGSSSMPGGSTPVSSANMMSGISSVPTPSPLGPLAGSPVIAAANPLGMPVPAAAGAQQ
UniProt Q9HC77: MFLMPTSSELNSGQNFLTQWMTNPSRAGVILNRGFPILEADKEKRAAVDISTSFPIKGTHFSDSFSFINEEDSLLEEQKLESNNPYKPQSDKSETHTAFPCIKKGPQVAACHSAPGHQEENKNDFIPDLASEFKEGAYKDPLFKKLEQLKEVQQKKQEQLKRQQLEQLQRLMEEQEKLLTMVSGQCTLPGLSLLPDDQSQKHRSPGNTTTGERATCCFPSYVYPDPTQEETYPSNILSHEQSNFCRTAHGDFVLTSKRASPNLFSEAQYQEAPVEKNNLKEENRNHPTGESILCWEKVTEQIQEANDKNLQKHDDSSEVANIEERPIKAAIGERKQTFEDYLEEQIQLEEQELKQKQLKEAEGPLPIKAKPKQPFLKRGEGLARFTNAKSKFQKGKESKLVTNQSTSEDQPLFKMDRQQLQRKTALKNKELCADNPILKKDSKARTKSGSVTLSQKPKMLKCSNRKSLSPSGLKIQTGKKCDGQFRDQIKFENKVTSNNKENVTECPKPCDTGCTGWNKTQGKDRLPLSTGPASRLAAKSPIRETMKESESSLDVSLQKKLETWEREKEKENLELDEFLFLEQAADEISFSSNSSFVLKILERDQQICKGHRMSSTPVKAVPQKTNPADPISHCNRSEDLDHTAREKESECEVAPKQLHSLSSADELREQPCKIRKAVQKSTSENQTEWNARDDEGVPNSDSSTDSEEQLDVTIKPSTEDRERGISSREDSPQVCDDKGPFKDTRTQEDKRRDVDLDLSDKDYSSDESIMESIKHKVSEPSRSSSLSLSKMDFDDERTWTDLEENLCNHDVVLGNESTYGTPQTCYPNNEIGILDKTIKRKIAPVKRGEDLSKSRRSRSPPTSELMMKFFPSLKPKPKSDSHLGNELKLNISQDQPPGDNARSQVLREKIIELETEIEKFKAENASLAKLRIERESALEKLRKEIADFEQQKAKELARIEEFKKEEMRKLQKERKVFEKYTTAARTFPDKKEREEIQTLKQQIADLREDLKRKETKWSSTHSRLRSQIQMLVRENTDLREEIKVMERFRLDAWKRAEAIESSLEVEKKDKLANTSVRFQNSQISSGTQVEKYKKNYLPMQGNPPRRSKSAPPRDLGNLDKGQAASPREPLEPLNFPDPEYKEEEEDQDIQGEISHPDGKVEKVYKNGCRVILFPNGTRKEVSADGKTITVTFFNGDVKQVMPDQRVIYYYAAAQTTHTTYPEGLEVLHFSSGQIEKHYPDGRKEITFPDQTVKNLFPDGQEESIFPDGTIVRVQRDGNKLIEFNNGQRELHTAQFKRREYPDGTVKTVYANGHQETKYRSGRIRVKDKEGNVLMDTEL
UniProt Q9Y6C9: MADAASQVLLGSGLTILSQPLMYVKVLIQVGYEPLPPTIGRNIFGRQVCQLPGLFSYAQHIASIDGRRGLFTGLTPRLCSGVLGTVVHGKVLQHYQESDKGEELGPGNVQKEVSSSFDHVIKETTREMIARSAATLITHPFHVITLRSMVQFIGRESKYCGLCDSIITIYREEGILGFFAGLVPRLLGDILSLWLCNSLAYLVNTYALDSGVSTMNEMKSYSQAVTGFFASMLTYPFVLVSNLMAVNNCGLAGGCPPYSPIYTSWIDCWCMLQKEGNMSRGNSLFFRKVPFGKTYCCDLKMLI
UniProt Q9NZD2: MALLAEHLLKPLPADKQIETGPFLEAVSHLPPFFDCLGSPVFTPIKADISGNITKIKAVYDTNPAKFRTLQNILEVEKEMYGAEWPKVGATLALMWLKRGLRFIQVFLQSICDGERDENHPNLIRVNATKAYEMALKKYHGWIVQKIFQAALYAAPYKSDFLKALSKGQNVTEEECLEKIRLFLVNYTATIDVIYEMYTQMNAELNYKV

Compound: Nc1ncnc2c1ncn2[C@@H]1O[C@H](COP(=O)(O)OP(=O)(O)OP(=O)(O)O)[C@@H](O)[C@H]1O [adenosine triphosphate]
Experiment: NP40-soluble protein abundance relative to vehicle (solubility fold change) (ratio); higher = more soluble protein in presence of ATP
In short: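 Eight concentrations, 0.1 to 10 mM, were tested on Jurkat crude lysate for 10 min at room temperature and then 3 min at 37 °C, in three independent experiments. The lysate was solubilised with 0.8% NP40 and benzonase, ultracentrifuged, and the supernatant TMT-labelled for LC-MS/MS. Each value is the fold change against the detergent-processed vehicle in its own replicate, from vsn-normalised intensities.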

Row | Target | NP40-soluble protein abundance (concentration: 1mM) | NP40-soluble protein abundance (concentration: 2mM) | NP40-soluble protein abundance (concentration: 4mM) | NP40-soluble protein abundance (concentration: 6mM) | NP40-soluble protein abundance (concentration: 8mM) | NP40-soluble protein abundance (concentration: 10mM)
1 | E7EWW9 and related entries (UniProt P09488) | 0.856 ± 0.17 | 0.89 ± 0.1 | 0.854 ± 0.059 | 0.768 ± 0.19 | 0.838 ± 0.056 | 0.848 ± 0.071
2 | E9PLD2 and related entries (UniProt Q9H019) | 1 ± 0.073 | 1 ± 0.062 | 0.955 ± 0.036 | 1.01 ± 0.093 | 0.971 ± 0.038 | 0.937 ± 0.035
3 | E7ET39 and related entries (UniProt Q8NDZ4) | 1.08 ± 0.03 | 1.05 ± 0.034 | 1.11 ± 0.12 | 1.15 ± 0.029 | 1.22 ± 0.054 | 1.22 ± 0.12
4 | E9PGC8 (UniProt P78559) | 0.95 ± 0.067 | 0.946 ± 0.021 | 0.929 ± 0.027 | 0.975 ± 0.035 | 0.916 ± 0.017 | 0.9247 ± 0.0049
5 | F8VSL3 and related entries (UniProt P25208) | 0.996 ± 0.065 | 0.976 ± 0.067 | 0.926 ± 0.059 | 0.994 ± 0.083 | 0.952 ± 0.1 | 0.882 ± 0.076
6 | F5H269 and related entries (UniProt Q9Y485) | 1.01 ± 0.023 | 0.9824 ± 0.0046 | 0.995 ± 0.096 | 1.06 ± 0.083 | 0.995 ± 0.066 | 1.01 ± 0.073
7 | F5GWD3 and related entries (UniProt Q13889) | 1.07 ± 0.11 | 1.06 ± 0.058 | 1.05 ± 0.041 | 1.05 ± 0.17 | 1.09 ± 0.023 | 1.13 ± 0.12
8 | F8VXC8 and related entries (UniProt Q8TAQ2) | 1.06 ± 0.064 | 1.06 ± 0.05 | 1.06 ± 0.076 | 1.14 ± 0.15 | 1.12 ± 0.079 | 1.11 ± 0.048
9 | G3V1A6 and related entries (UniProt P57764) | 1 ± 0.048 | 0.977 ± 0.03 | 0.953 ± 0.05 | 0.941 ± 0.096 | 1 ± 0.04 | 0.943 ± 0.0097
10 | E9PLY5 and related entries (UniProt Q9UPN3+H3BQK9+H3BPE1+E9PLY5) | 1 ± 0.025 | 1 ± 0.022 | 0.996 ± 0.029 | 1.02 ± 0.034 | 0.982 ± 0.025 | 0.996 ± 0.025
11 | F5GZS6 and related entries (UniProt P08195) | 0.933 ± 0.056 | 0.922 ± 0.023 | 0.902 ± 0.054 | 0.924 ± 0.034 | 0.883 ± 0.022 | 0.8795 ± 0.0041
12 | UniProt G3V599 | 0.965 ± 0.034 | 0.934 ± 0.039 | 0.946 ± 0.037 | 0.981 ± 0.056 | 0.97 ± 0.046 | 0.936 ± 0.054
13 | E9PJF5 and related entries (UniProt Q9HCU9) | 0.993 ± 0.11 | 1.07 ± 0.14 | 1.04 ± 0.14 | 1.05 ± 0.17 | 1.02 ± 0.14 | 1.05 ± 0.099
14 | E9PJD7 (UniProt P0DTL6) | 1.09 ± 0.079 | 1.08 ± 0.098 | 1.06 ± 0.056 | 1.05 ± 0.096 | 1.06 ± 0.17 | 1.06 ± 0.077
15 | F8W8I6 and related entries (UniProt P31483) | 0.982 ± 0.018 | 0.985 ± 0.0099 | 0.964 ± 0.015 | 0.99 ± 0.039 | 0.955 ± 0.0095 | 0.947 ± 0.016
16 | E9PR30 and related entries (UniProt P62861) | 0.899 ± 0.15 | 0.843 ± 0.15 | 0.806 ± 0.15 | 0.751 ± 0.21 | 0.669 ± 0.084 | 0.788 ± 0.13
17 | F6TB26 and related entries (UniProt Q9Y2W6) | 0.967 ± 0.023 | 0.967 ± 0.021 | 0.948 ± 0.019 | 0.9912 ± 0.0029 | 0.919 ± 0.036 | 0.95 ± 0.013
18 | F5GYQ1 and related entries (UniProt P61421) | 1.07 ± 0.12 | 0.997 ± 0.087 | 0.985 ± 0.11 | 0.936 ± 0.071 | 1.02 ± 0.07 | 0.961 ± 0.069
19 | E7EU96 and related entries (UniProt P68400) | 1.06 ± 0.079 | 1.03 ± 0.062 | 1.04 ± 0.057 | 1.01 ± 0.082 | 1.11 ± 0.091 | 1.06 ± 0.048
20 | E9PK61 and related entries (UniProt O14681) | 1 ± 0.047 | 1.01 ± 0.065 | 1.04 ± 0.012 | 1.03 ± 0.027 | 1.05 ± 0.034 | 1.09 ± 0.026
21 | E7EMM4 and related entries (UniProt Q13510) | 0.928 ± 0.066 | 0.949 ± 0.068 | 0.924 ± 0.064 | 0.924 ± 0.043 | 0.902 ± 0.045 | 0.929 ± 0.067
22 | G5E994 and related entries (UniProt Q5VW38) | 0.899 ± 0.074 | 1.08 ± 0.11 | 0.931 ± 0.059 | 1.05 ± 0.13 | 0.913 ± 0.11 | 0.925 ± 0.12
23 | F1T0I1 and related entries (UniProt O15027) | 1.13 ± 0.044 | 1.15 ± 0.069 | 1.19 ± 0.067 | 1.22 ± 0.14 | 1.22 ± 0.1 | 1.24 ± 0.1
24 | E7EUU4 and related entries (UniProt Q04637) | 1.09 ± 0.046 | 1.1 ± 0.014 | 1.11 ± 0.031 | 1.13 ± 0.028 | 1.126 ± 0.0077 | 1.142 ± 0.0076
25 | D6RIF6 and related entries (UniProt Q9P270) | 0.956 ± 0.052 | 1.012 ± 0.007 | 1.12 ± 0.12 | 1.13 ± 0.051 | 1.03 ± 0.038 | 1.11 ± 0.089
26 | E5RK69 and related entries (UniProt P08133) | 0.955 ± 0.042 | 0.937 ± 0.036 | 0.904 ± 0.03 | 0.919 ± 0.064 | 0.919 ± 0.033 | 0.917 ± 0.057
27 | F6VUX8 and related entries (UniProt Q9HC77) | 0.867 ± 0.035 | 0.973 ± 0.052 | 0.919 ± 0.069 | 1.05 ± 0.069 | 0.931 ± 0.023 | 0.946 ± 0.063
28 | E9PIE4 and related entries (UniProt Q9Y6C9) | 0.98 ± 0.081 | 0.947 ± 0.048 | 0.946 ± 0.03 | 0.877 ± 0.075 | 0.965 ± 0.026 | 0.939 ± 0.039
29 | E5RFU2 and related entries (UniProt P34913) | 0.952 ± 0.043 | 0.9392 ± 0.0089 | 0.971 ± 0.011 | 0.961 ± 0.06 | 0.9598 ± 0.0024 | 0.94 ± 0.036
30 | F5H0U5 and related entries (UniProt Q9NZD2) | 0.918 ± 0.065 | 0.907 ± 0.033 | 0.926 ± 0.076 | 0.889 ± 0.046 | 0.917 ± 0.06 | 0.793 ± 0.13

Laid out differently: entries from further up.
Row	Target	NP40-soluble protein abundance (concentration: 1mM)	NP40-soluble protein abundance (concentration: 2mM)	NP40-soluble protein abundance (concentration: 4mM)	NP40-soluble protein abundance (concentration: 6mM)	NP40-soluble protein abundance (concentration: 8mM)	NP40-soluble protein abundance (concentration: 10mM)
7	F5GWD3 and related entries (UniProt Q13889)	1.07 ± 0.11	1.06 ± 0.058	1.05 ± 0.041	1.05 ± 0.17	1.09 ± 0.023	1.13 ± 0.12
8	F8VXC8 and related entries (UniProt Q8TAQ2)	1.06 ± 0.064	1.06 ± 0.05	1.06 ± 0.076	1.14 ± 0.15	1.12 ± 0.079	1.11 ± 0.048
9	G3V1A6 and related entries (UniProt P57764)	1 ± 0.048	0.977 ± 0.03	0.953 ± 0.05	0.941 ± 0.096	1 ± 0.04	0.943 ± 0.0097
10	E9PLY5 and related entries (UniProt Q9UPN3+H3BQK9+H3BPE1+E9PLY5)	1 ± 0.025	1 ± 0.022	0.996 ± 0.029	1.02 ± 0.034	0.982 ± 0.025	0.996 ± 0.025
11	F5GZS6 and related entries (UniProt P08195)	0.933 ± 0.056	0.922 ± 0.023	0.902 ± 0.054	0.924 ± 0.034	0.883 ± 0.022	0.8795 ± 0.0041
12	UniProt G3V599	0.965 ± 0.034	0.934 ± 0.039	0.946 ± 0.037	0.981 ± 0.056	0.97 ± 0.046	0.936 ± 0.054
13	E9PJF5 and related entries (UniProt Q9HCU9)	0.993 ± 0.11	1.07 ± 0.14	1.04 ± 0.14	1.05 ± 0.17	1.02 ± 0.14	1.05 ± 0.099
